The source of these data is publication doi:10.1101/2022.06.25.497591.

Protein sequences, listed by entry. Tags and fused reporters are not part of them.
UniProt O60884: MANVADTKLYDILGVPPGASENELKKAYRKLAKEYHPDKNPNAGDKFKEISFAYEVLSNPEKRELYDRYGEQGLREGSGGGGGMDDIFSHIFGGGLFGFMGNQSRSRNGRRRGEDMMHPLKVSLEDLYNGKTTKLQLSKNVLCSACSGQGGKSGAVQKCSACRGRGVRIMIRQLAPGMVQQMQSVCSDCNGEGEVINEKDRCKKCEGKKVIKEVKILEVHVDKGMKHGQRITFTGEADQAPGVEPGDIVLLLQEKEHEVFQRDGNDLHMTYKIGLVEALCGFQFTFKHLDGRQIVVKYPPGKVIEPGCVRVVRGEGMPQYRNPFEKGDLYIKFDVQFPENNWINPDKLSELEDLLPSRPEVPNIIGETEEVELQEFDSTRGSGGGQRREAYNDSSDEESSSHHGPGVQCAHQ
UniProt P25685: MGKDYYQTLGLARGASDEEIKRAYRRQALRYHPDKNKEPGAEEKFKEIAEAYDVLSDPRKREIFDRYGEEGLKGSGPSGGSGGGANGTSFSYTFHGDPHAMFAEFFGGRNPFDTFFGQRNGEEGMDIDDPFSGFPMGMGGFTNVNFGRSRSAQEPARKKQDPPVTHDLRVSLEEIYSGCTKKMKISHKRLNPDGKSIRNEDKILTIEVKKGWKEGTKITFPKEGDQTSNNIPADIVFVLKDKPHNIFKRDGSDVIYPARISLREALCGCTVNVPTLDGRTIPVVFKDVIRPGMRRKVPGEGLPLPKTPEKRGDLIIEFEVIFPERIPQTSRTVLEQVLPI
UniProt Q9UDY4: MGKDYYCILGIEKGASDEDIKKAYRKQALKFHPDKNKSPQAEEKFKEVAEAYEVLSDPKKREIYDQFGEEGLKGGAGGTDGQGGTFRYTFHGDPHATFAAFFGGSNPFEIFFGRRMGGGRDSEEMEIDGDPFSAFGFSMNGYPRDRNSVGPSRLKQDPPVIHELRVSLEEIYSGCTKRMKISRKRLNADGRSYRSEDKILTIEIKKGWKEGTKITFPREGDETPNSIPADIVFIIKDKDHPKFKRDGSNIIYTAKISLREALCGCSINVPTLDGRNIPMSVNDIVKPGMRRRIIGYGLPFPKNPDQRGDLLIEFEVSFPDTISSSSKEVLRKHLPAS

These are yes or no findings as the source states them, for the method shown. In cells and extracts the contact can be indirect. Some results given as binding are weak or reduced against the parent protein; the word gives no strength.

Assay in all cases: proximity ligation
In assay [1] the target is DNAJA2 (human (endogenous in HeLa)) (UniProt O60884).
Assay [2] concerns the target DNAJB1 (human (endogenous in HeLa, HEK 293 and human dermal fibroblasts)) (UniProt P25685).
The target in assay [3] is DNAJA1 (human (endogenous in HeLa, HEK 293 and human dermal fibroblasts)) (UniProt P31689).

As to DNAJB1 (from UniProt P25685 1-340), the binding entry in assay [1] was “binds”.
Take DNAJB4 (from UniProt Q9UDY4 1-337): the binding entry in assay [2], in assay [1] and in assay [3] was “binds” each time.
